Values are relative to the signal before dosing, not to a vehicle control; the signal also falls without drug.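 The cancer cells are triple-negative breast cancer lines of basal-like or mesenchymal-like type, grown without fibroblasts. A drop in red signal reflects loss of mitochondrial integrity, a stand-in for apoptotic death.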
Tests used:
Test in all cases: relative JC-1 red fluorescence (viability) vs pre-drug, monoculture (fraction); higher = more viable cancer cells
Settings in all cases: coculture fibroblast: none (monoculture)
BT20 = system: BT20
Description: (§1)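 JC-1 labelled TNBC cells grown in monoculture (density kept equal with unlabelled cancer cells) in 384-well plates in FluoroBrite medium, treated with one of 42 anticancer drugs at 0.1, 1, 10 or 100 uM. JC-1 red fluorescence (mitochondrial integrity, surrogate of apoptotic death) was read by plate reader every 8 h for 72 h. Values are normalised to each well's pre-drug value, with background from alamethicin. The stock of one drug was tenfold lower, so its dose labels may be too high. Monoculture values are repeated alongside each fibroblast plate and are averaged here.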

HCC1143 = system: HCC1143
Description: as §1

Hs578T = system: Hs578T
Description: as §1

MDAMB468 = system: MDAMB468
Description: as §1

O=c1[nH]cc(F)c(=O)[nH]1 [Fluorouracil]
relative JC-1 red fluorescence
Settings	8 h	16 h	24 h	32 h	40 h	48 h	56 h	64 h	72 h
BT20, 0.1 µM	0.925	0.869	0.767	0.707	0.678	0.655	0.638	0.616	0.608
BT20, 1 µM	0.942	0.907	0.865	0.806	0.755	0.741	0.712	0.69	0.687
BT20, 10 µM	0.935	0.8542	0.772	0.717	0.69	0.676	0.663	0.651	0.644
BT20, 100 µM	0.918	0.829	0.778	0.7	0.666	0.639	0.61	0.587	0.573
HCC1143, 0.1 µM	0.8873	0.8019	0.7186	0.6639	0.603	0.559	0.527	0.502	0.478
HCC1143, 1 µM	0.872	0.782	0.711	0.644	0.595	0.55	0.505	0.479	0.456
HCC1143, 10 µM	0.896	0.827	0.771	0.728	0.686	0.661	0.642	0.63	0.619
HCC1143, 100 µM	0.883	0.784	0.752	0.716	0.693	0.672	0.648	0.644	0.633
Hs578T, 0.1 µM	0.839	0.755	0.617	0.57	0.4951	0.451	0.413	0.398	0.376
Hs578T, 1 µM	0.865	0.7856	0.737	0.67	0.638	0.627	0.604	0.599	0.591
Hs578T, 10 µM	0.854	0.755	0.681	0.629	0.575	0.557	0.531	0.524	0.514
Hs578T, 100 µM	0.8507	0.7296	0.717	0.6427	0.607	0.589	0.564	0.561	0.549
MDAMB468, 0.1 µM	0.8882	0.828	0.76	0.678	0.618	0.582	0.552	0.519	0.496
MDAMB468, 1 µM	0.896	0.834	0.806	0.702	0.668	0.656	0.626	0.604	0.595
MDAMB468, 10 µM	0.895	0.826	0.764	0.699	0.659	0.648	0.614	0.594	0.584
MDAMB468, 100 µM	0.88204	0.8052	0.797	0.741	0.722	0.709	0.702	0.686	0.677

CS(=O)(=O)CCNCc1ccc(-c2ccc3ncnc(Nc4ccc(OCc5cccc(F)c5)c(Cl)c4)c3c2)o1 [Lapatinib]
relative JC-1 red fluorescence
Settings	8 h	16 h	24 h	32 h	40 h	48 h	56 h	64 h	72 h
BT20, 0.1 µM	0.93	0.882	0.784	0.7206	0.6864	0.6549	0.6263	0.5942	0.584
BT20, 1 µM	0.923	0.8346	0.775	0.715	0.682	0.66	0.627	0.6028	0.5847
BT20, 10 µM	0.9323	0.827	0.724	0.668	0.637	0.612	0.581	0.549	0.527
BT20, 100 µM	0.9378	0.891	0.8334	0.758	0.727	0.699	0.665	0.643	0.62
HCC1143, 0.1 µM	0.884	0.803	0.726	0.66	0.6	0.547	0.509	0.486	0.469
HCC1143, 1 µM	0.886	0.8	0.75	0.69	0.645	0.607	0.583	0.569	0.549
HCC1143, 10 µM	0.951	0.87	0.791	0.755	0.751	0.758	0.734	0.72	0.721
HCC1143, 100 µM	0.88	0.78	0.708	0.643	0.599	0.557	0.529	0.509	0.494
Hs578T, 0.1 µM	0.8424	0.771	0.6915	0.6494	0.604	0.573	0.5503	0.55307	0.542
Hs578T, 1 µM	0.882	0.757	0.718	0.671	0.625	0.5995	0.5692	0.552	0.539
Hs578T, 10 µM	0.873	0.794	0.715	0.724	0.708	0.693	0.684	0.678	0.66
Hs578T, 100 µM	0.883	0.798	0.773	0.739	0.687	0.665	0.624	0.605	0.587
MDAMB468, 0.1 µM	0.8991	0.8531	0.808	0.7328	0.6867	0.65496	0.6257	0.604	0.583
MDAMB468, 1 µM	0.948	0.878	0.897	0.856	0.83	0.8181	0.803	0.7847	0.764
MDAMB468, 10 µM	0.849	0.752	0.721	0.724	0.732	0.799	0.782	0.733	0.705
MDAMB468, 100 µM	0.943	0.906	0.887	0.811	0.769	0.76	0.726	0.702	0.695

Source: the supplement of paper PMC6078165
